# From PMC5400275
# No constants are given. Whether binding was seen depends on the method and setting. For some of these results: In cells and extracts the contact can be indirect. Some entries that bind do so weakly or less than the wild type. Where a sequence is shown, tags or fusion partners need not be part of it.
# T1: ATX1 fused to a GAL4 DNA-binding domain (BD) (Arabidopsis thaliana) (UniProt Q94BT9)
# T1 sequence: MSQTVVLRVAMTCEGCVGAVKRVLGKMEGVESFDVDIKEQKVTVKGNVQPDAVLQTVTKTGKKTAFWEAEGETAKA
# T2: cLUC-ATX1 (Arabidopsis thaliana) (UniProt Q94BT9)
# T2 sequence: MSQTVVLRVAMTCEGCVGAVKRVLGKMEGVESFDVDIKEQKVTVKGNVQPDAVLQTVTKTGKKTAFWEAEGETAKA
# T3: RAN1-N-FLAG (Arabidopsis thaliana) (UniProt Q9S7J8)
# T3 sequence: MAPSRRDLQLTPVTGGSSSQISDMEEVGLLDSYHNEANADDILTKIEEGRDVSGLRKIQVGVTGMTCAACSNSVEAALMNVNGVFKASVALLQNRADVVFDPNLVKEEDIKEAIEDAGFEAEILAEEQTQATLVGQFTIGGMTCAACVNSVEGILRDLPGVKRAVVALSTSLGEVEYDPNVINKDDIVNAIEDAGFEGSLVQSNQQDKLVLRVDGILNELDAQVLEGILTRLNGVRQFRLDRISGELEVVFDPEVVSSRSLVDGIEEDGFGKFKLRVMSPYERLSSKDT
# T4: ATX1-FLAG (Arabidopsis thaliana) (UniProt Q94BT9)
# T4 sequence: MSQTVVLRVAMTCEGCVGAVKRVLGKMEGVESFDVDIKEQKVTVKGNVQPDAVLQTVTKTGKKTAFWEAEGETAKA
# Tests used:
# [1] = target: T1, ATX1 fused to a GAL4 DNA-binding domain (BD) (Arabidopsis thaliana); experiment: two-hybrid; yeast strain AH109; pGBKT7 (ATX1) and pGADT7 (RAN1 N terminal) co-transformed; SD (-Leu/-Trp/-His/-Ade) medium with X-alpha-Gal (50 mg/L), 3 days; growth and blue colour
# [2] = target: T2, cLUC-ATX1 (Arabidopsis thaliana); experiment: split reporter; split-luciferase complementation in N. benthamiana leaves (agroinfiltration with P19), 2 days, 1 mM luciferin, CCD imaging; the paper calls it BiFC
# [3] = target: T3, RAN1-N-FLAG (Arabidopsis thaliana); experiment: co-IP; N. benthamiana leaves agroinfiltrated, 2 days; extract in 50 mM Tris-HCl pH 7.5, 150 mM NaCl, 5 mM MgCl2, 1 mM EDTA, 1% Triton X-100; anti-FLAG agarose beads 2 h at 4 C; blots with anti-FLAG and anti-GFP
# [4] = target: T4, ATX1-FLAG (Arabidopsis thaliana); experiment: as above
binder,measurement,setting,value
"RAN1-N (289 amino-terminal amino acids of RAN1) ligated to a GAL4 activation domain (AD) (domain or fragment, UniProt Q9S7J8 1-289) MAPSRRDLQLTPVTGGSSSQISDMEEVGLLDSYHNEANADDILTKIEEGRDVSGLRKIQVGVTGMTCAACSNSVEAALMNVNGVFKASVALLQNRADVVFDPNLVKEEDIKEAIEDAGFEAEILAEEQTQATLVGQFTIGGMTCAACVNSVEGILRDLPGVKRAVVALSTSLGEVEYDPNVINKDDIVNAIEDAGFEGSLVQSNQQDKLVLRVDGILNELDAQVLEGILTRLNGVRQFRLDRISGELEVVFDPEVVSSRSLVDGIEEDGFGKFKLRVMSPYERLSSKDT",binding,[1],binds
"nLUC-RAN1-N (domain or fragment, UniProt Q9S7J8 1-289) MAPSRRDLQLTPVTGGSSSQISDMEEVGLLDSYHNEANADDILTKIEEGRDVSGLRKIQVGVTGMTCAACSNSVEAALMNVNGVFKASVALLQNRADVVFDPNLVKEEDIKEAIEDAGFEAEILAEEQTQATLVGQFTIGGMTCAACVNSVEGILRDLPGVKRAVVALSTSLGEVEYDPNVINKDDIVNAIEDAGFEGSLVQSNQQDKLVLRVDGILNELDAQVLEGILTRLNGVRQFRLDRISGELEVVFDPEVVSSRSLVDGIEEDGFGKFKLRVMSPYERLSSKDT",binding,[2],binds
"ATX1-GFP (protein, UniProt Q94BT9 1-76) MSQTVVLRVAMTCEGCVGAVKRVLGKMEGVESFDVDIKEQKVTVKGNVQPDAVLQTVTKTGKKTAFWEAEGETAKA",binding,[3],binds
"RAN1-N-GFP (domain or fragment, UniProt Q9S7J8 1-289) MAPSRRDLQLTPVTGGSSSQISDMEEVGLLDSYHNEANADDILTKIEEGRDVSGLRKIQVGVTGMTCAACSNSVEAALMNVNGVFKASVALLQNRADVVFDPNLVKEEDIKEAIEDAGFEAEILAEEQTQATLVGQFTIGGMTCAACVNSVEGILRDLPGVKRAVVALSTSLGEVEYDPNVINKDDIVNAIEDAGFEGSLVQSNQQDKLVLRVDGILNELDAQVLEGILTRLNGVRQFRLDRISGELEVVFDPEVVSSRSLVDGIEEDGFGKFKLRVMSPYERLSSKDT",binding,[4],binds
